For eight molecules, binding results are on record in paper PMC11651612.

No constants are given. Whether binding was seen depends on the method and setting. Binding seen in cells or lysates may run through a third protein. These calls come from enrichment with a bait or labelling near it, and not all partners need be listed.

The target of assay [1] is T1, Cdc10-mCherry (C. neoformans) (UniProt J9VMT9).
T1 sequence: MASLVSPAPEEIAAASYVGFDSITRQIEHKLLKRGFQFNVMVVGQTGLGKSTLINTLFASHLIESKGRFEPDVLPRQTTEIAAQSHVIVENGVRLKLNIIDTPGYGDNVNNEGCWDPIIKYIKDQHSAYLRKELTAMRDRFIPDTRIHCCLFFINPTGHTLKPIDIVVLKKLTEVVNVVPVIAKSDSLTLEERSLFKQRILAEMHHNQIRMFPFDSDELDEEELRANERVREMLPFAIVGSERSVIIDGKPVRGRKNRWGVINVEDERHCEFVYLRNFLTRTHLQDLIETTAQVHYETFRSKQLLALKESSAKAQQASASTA
Briefly: affinity purification with mass spectrometry; mCherry-tagged septin captured from C. neoformans lysate on RFP-Trap agarose, 4 h at 4°C, washed with TBS with 2 M urea pH 7.5; GeLC-MS/MS; untagged H99 as negative control; hits logFC >2 and adjusted p <0.001 (text-named hits <0.05); exponential cultures at ~25°C or shifted to 37°C for 2 h; N = 5.

For assay [2], the target named is T2, Cdc3-mCherry (C. neoformans) (UniProt J9VUF2).
T2 sequence: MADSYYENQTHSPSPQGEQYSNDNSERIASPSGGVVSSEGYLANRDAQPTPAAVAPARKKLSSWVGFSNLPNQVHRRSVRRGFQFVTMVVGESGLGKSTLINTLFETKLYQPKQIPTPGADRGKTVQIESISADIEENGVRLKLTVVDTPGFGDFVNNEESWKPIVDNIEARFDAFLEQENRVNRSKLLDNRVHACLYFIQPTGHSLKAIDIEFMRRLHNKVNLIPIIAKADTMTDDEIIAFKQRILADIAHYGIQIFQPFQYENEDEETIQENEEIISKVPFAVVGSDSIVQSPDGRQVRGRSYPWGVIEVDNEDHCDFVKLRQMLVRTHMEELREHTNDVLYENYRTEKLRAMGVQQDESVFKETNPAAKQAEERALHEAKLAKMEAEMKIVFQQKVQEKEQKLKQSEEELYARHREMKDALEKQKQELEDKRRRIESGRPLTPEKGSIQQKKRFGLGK
Described as above.

B1: RNA-binding protein (protein, UniProt J9VQW4 1-607)
chain: MPFNDELDTPAFRAWLSRTIEPLCDADPTVLSDYIVALMKHDASMTEDEWKAFISRELVDFLESSSRPFVETLFQTLHSKDYDLTQTLPAPAVSHHIPTGPAAGVAPQPSAGPSTVQNGQQRDVTMQEMPVGVSGRRKCRDYHERGYCMRGANCQYEHSADMLIPTPEMMFQGFLPPFMPGMPGMPIQYPGMQPVRPMTMQGPGFRDGPNGRNRSFGNRPPPSNEGENFEGSSRPPSDHSKTTLLITDIPEANMSVVAIRNYFQQFGTITSVALEGRGNRALVSFASNLEAYKAWKSDEAVFGNRHVKVLWHKPRPGQGAAGQKALEQSKKLLENLQKMEAGEGPNQGVKPKLSGPETRLQATLAELEHREKQSKKEPLIAEQKVLLKRASTGTKEEKVQILKRLREITKELEIINNPPPKPESMDVDDAKSRLDRELAAHGMEMGGQDEEELARLNAQLASLKEKANTLGVNASARYSPYSRGRGGRGRGRGGPPRPMRLDNRSRTILVSGDRFGDEEARRVVQEWYESTGGGVEFVDGSLRITYPQREMAEKALALGTNELREKAGPIRTAWEPLKPVERYQPPDVEMTVHMGEEELRGEKDDDE
Consider B1, for which the binding result in assay [1] was “binds”.

B2: W2 domain-containing protein (protein, UniProt J9VK83 1-432)
chain: MSHTPTSTASGNAPTTDKKPSLTGVRIKQRKGQAKATAKFEPEAFRDALLLHLALLPHPITKDALVAKLVQAGSTLEFLKYSEQLFELLFVGGLLQPGGSYLDDKRSPVYILQPDDAPDAFQDGVKGMIEVLKRVMQRYKYLQKPLEENFLPGVLSYLPKWDVKSREKLAEAIALLTIELQISSRCLQSLAKEHVVKDNVALNFLTAFIKTYLSRQSIDQFGSTLRRSGLKSILAVFPLQIRDRKHLEAHFREENLQVVNDWYAKLALGEVKDETVQAVERMINDDETSDQIVEALKLQQSERPVSEADISEWIWLALMGTVDWTARSDQIDTFVISHITRYASILETFCQSAKAQVNLINAVQVYCYTDTRIIKSFVQILKVLYNADVVSDQAIIYWHQKGAKPNGKGHFLKVAEPLVKFLSEQESDSEEE
Regarding B2, the binding entry in assay [2] and in assay [1] was “binds” in each case.

B3: tRNA-dihydrouridine synthase 1 (protein, UniProt J9VE31 1-615)
chain: MSAAAQVVNSEEPQSVGEELRTKKQFPTFPAPGKPKHEKLGGYDFYRSIGSPKFVVAPMVDQSELAWRLLSRSPLPPALAGPSETVITPQGKTYIRHPGGAHVCYTPMIHAKVFVDAKGEGGRNGDGQFCLSLDEEGGEGVIGGVEGGDRPLIVQFCANDPDILLAAAKKVEHRCDAVDINFGCPQGIAKRGHYGSFLQDEWELIHKLISTLHENLSVPVTAKFRIFPDLDKTIAYARMMEAAGAQILTCHGRTREMKGQNTGLADWEYIREVKKAVKVPVFANGNILYREDVDRCMEVTGCDGVMSAEGNLSNPAIFMPPEHPHAHPPITMLAHRYLDIVEALDTPTAGSAIKAHLFRLLKPVLDTDEELRVQIATCRWSDGMDGFREIIRDIERRCAPVREALGADWRPPAVDPKTGYRSLPMFAAQPQIRAKPVSTEIGGHEDMVSRPVSPGKDGEDRMFDTPNITTAPASSVPGTVLFSRSHRHTSLGQTERCVHSDCTGVAATRCPTRACITHCRILRAVEAGYTREEAEAEGAKGGLVGMGCDAHEEKVRARKEREARKRKGREMAKEKAKERKKEEKAKAKEEREKSKEKVEMTEEEASFAAGLAVNL
For B3, the binding entry in assay [2] and in assay [1] was “binds” throughout.

B4: Cyclin-dependent kinases regulatory subunit (protein, UniProt J9VRP5 1-104)
chain: MAPGKQPATLEELSERIIYSDRYSDDRFEYRHVILPKQMLKLIPKRYFASDDSGLLRILEEDEWRGIGITQSLGWEHFEVHAPEPHILLFRRPLPGSNANAKRQ
Turning to B4, the binding result in assay [2] and in assay [1] was “binds” throughout.

B5: Probable acetate kinase (protein, UniProt J9W3A6 1-430)
chain: MPDKAEYLLAINCGSSSIKGKLFAIPSFELLANLAVTNISSSDERVKIKTTWEEGKGKDSEEEADYGDKIRYASLVPILLDHLTNSTHVKKEEIKYVCHRVVHGGMHDKGIRVVKGHEEGLMEMDKLSEFAPLHNHRAVLAVKSCIDALPHHTSLLLFDTIFHRTIAPEVYTYALPPPDTELTMPLRKYGFHGLSYASIVQSLAEHLKKPSDQINVVVAHLGSGSSSCCIKNGKSIDTSMGLTPLEGLLGGTRSGTIDPTAIFHHTEDAASDANVGDFTVSKAEIILNKNSGFKALAGTTNFGHIIQNLDPSKCSEEDHEKAKLTYAVFLDRLLNFVAQYLFKLLSEVPIESIDGLVFSGGIGEKGAELRRDVLKKLAWLGAEVDEEANNSNSGGAVKCITKEGSKLKGWVVETDEEGWMARMAKEEFGF
Consider B5, for which the binding result in assay [2] and in assay [1] was “binds” each time.

B6: Kynurenine 3-monooxygenase [BNA4] (protein, UniProt J9VMV3 1-507)
chain: MPQSRARKVLVVGAGPVGALTALSLHRRGWEVEVWESRDDPRGQDAAPSNLRSINLAISSRGLEALRSVDPSIAENFLEEAIPMKGRMIHHTDGKQESQLYDPIGGQSINSISRPILNQRLVQSLPETIKLRFNTKLKHIDFKNRVAYASHKQEATLLPGEESGKDKKESTEDEDDGTAFDLVIGCDGSWSKVRTAMMRAERIDFSQSFIPHAYIELHMPSNPDFPGGYAMDKNHLHIWPRHAFMLIGLPNKDGSFTLTLFIPFSSLELLNTRESAATFFREHFPSAVDIVGEKVLLDDFEKNPRGNLVTINCTPSAWSSHAILLGDASHSMVPFYGQGLNCGLEDVRVLSSILERHHISSTTTLALGETDPELELALKAYSDERQGDLKAICELALQNYTEMRSHVLSPLHHLRRQVDKMFTTLFRSAPQATLSLTEPFPTKRVRGWTSLYEMVTFRPDVGYSEALRKERWQKDVVGYTGWVGGVIGIGAAGVFAATMAKKWLERR
In the case of B6, the binding entry in assay [2] and in assay [1] was “binds” each time.

B7: Tyrosyl-DNA phosphodiesterase 1 (protein, UniProt J9VKG1 1-655)
chain: MGSDEQPSWTPLSRSNQQSVDHDDEDDEQLRIAIALSQTEARETKRARREETPDDEKQMLEEAIAASLAEAGSSTNPETIISQQPVGSPATPIVAPAEEAPSSLRVGSQTYDRAQMNRERLQRQAAREKIEAERSRRDGIATFEQTSSQLPQARKAASAQWPPPTGAHPFQRTAPFPRDAAGEYYLEGELRHTGNMWASEDPTGNIRSPTFSLTHVVGNHSQISLIITSAYCIDDSWINEAGILPDPVDVPIVMIRPYPKDLRHRLNGKVVSQLNGEVWCYPDMKDNWGTMHMKFFWIFYKTGRLRVCISTANLVPYDWSMMENSVFVQDFPRLDTPIQGLSADTPTHDLAVQFRTLFKHIGVDSALTLLSKNHPQGNQIPFSGQNDFADLRHWDWGKVRFRTVISISEKLSGASDVSRFGIGRLGHVLDTEGWLPDEEEKAVIEYQGSSLGQYSLNWLHNFYSFCTGKKISSLVTNSKPSSWPPIKIIFPSLGTVDNSVGGRDGGGTIFAGKGWNANTKDLFYDSNSKRGGILMHAKMMIAIFHPKTRTPSSQTPSSASLGKRKALELDEVENRIGGWVYVGSHNFSPAAWGTLDTKKSPVTLSIKNYELGIVFPLYGQQSNAAADKVAPYKRPPKKYSVGDEPWDQKKHGFGL
On to B7, for which the binding result in assay [2] and in assay [1] was “binds” in each case.

B8: Protein CFT1 (protein, UniProt J9VWW6 1-1431)
chain: MHALHQTLLPSSSIHHSLFLPHFTPSTIYPLPKPPAVLDTPDVKVIGNLVVAGAEVLRVFEIREESVPIIEKAKLEEDVAEGEKDVQMEEVGDGFFDDGHAERAPLKYQTTRRLHLLTQHELNGTVTGLAATRTLESTIDGLDRLIVSFKDAKMALLEWSRGDIATVSLHTYERCSQMNTGDLQSYVPLLRTDPLWRLAVLTLPEDSLAVLPLIQEQSELDPLSEGFSRDAPYSPSFVLSLSDVSTTIKNIQDLLFLPGFHSPTIALLFSPMHTWSGRLQTVKDTFCLEIRTFDLSSGTSYPLLTSVSGLPSDSLYLVACPSELGGIVIVTSTGIVHVDQGGRVAAACVNAWWSRITSLKCSTASVSQKLTLEGSRCVFVTPHDMLLVLQNGAVHQVRFSMEGRAVGVIEVLDKGCVVPPPSDLTVAGDGAVFVGSAEGDSWLAKVNVVRQVVERAEKKKDEMEVDWDEDLYGDINDAALDEKAQEQFGPAAITLSPYDILTGVGKIMDIEFGIAASDQGLRTYPQLVAVSGGSRNSTFNVFRRGIPITKRRRFNELLNADGVWFLPIDRQTGQKFKDIPEAERATMLLSSEGNATRVFALSSKPTPQQIGRLDGKTLSAAPFFQRSCILHVSPLEVVLLDNNGKIIQTVCPRGDGPKIVNASISDPFVIIRRADDSVTFFVGDTVARTVGEAPIVSEGESPVCQAVEIFTDTTGVYRTFEPSKSQSSESASHHTDSESKPYITNGTNGTTARSTRQTQLTPEQIKRLQEQEPAITTEAPSMETAINSSHGTQWLALVTRSGELQIRSLPDLHIVLQSEGLGSSAPSFTDDLGENPGYVLGEKREEGEEEDEIIQMVFCPIGKGTVRQHLLALHHSGRLNAYEAQPRFTVDASSHSRRSLAVRFRKVHTQLLPISGGVGTTNGNARLPYTIVPFNNIEGLTGAFITGEKPHWIISSEAHPLRAFALKQAAMAFGKTTHLGGKGEYFIRIEDGSFICYLPPTLNTDFAIPCDRYQMERAYTNITFDPTSAHYVGAASIEVPFQAYDEEGEIQLGPDGPDLIPPTNQRSTLELFSQGSDPWRVIDGYEFDQNEEVMSMESVNLESPGAPGGYRDFIAVGTGFNFGEDRATRGNTYIFEILQTVGPQGGGGPGSVPGWKLVKRTKDPARHPVNAVNHINGYLLNTNGPKLYVKGLDYDAQLMGLAFLDIQLYATTVKVFKNFMLIGDLCKSFWFVSLQEDPYKFTTISKDLQHVSVVTADFLVHDGQVTFISSDRNGDMRMLDFDPTDPDSLNGERLMLKTEYHAGSAATVSKVIARRKTAEEEFAPQTQIIYATADGALTTVVSVKDARFKRLQLVSDQLVRNAQHVAGLNPRAFRTVRNDLLPRPLSKGILDGQLLNQFALQPIGRQKEMMRQIGTDAVTVASDLQALGGFW
As for B8, the binding result in assay [2] and in assay [1] was “binds” in each case.
